Experimental data from patent US20020076800A1.
No constants are given. Whether binding was seen depends on the method and setting. Some binding calls cover weakened binding; strength is not graded here. Where a sequence is shown, tags or fusion partners need not be part of it.

Biological target: T1, Human α2Macroglobulin (human) (UniProt P01023)
T1 sequence (looked up): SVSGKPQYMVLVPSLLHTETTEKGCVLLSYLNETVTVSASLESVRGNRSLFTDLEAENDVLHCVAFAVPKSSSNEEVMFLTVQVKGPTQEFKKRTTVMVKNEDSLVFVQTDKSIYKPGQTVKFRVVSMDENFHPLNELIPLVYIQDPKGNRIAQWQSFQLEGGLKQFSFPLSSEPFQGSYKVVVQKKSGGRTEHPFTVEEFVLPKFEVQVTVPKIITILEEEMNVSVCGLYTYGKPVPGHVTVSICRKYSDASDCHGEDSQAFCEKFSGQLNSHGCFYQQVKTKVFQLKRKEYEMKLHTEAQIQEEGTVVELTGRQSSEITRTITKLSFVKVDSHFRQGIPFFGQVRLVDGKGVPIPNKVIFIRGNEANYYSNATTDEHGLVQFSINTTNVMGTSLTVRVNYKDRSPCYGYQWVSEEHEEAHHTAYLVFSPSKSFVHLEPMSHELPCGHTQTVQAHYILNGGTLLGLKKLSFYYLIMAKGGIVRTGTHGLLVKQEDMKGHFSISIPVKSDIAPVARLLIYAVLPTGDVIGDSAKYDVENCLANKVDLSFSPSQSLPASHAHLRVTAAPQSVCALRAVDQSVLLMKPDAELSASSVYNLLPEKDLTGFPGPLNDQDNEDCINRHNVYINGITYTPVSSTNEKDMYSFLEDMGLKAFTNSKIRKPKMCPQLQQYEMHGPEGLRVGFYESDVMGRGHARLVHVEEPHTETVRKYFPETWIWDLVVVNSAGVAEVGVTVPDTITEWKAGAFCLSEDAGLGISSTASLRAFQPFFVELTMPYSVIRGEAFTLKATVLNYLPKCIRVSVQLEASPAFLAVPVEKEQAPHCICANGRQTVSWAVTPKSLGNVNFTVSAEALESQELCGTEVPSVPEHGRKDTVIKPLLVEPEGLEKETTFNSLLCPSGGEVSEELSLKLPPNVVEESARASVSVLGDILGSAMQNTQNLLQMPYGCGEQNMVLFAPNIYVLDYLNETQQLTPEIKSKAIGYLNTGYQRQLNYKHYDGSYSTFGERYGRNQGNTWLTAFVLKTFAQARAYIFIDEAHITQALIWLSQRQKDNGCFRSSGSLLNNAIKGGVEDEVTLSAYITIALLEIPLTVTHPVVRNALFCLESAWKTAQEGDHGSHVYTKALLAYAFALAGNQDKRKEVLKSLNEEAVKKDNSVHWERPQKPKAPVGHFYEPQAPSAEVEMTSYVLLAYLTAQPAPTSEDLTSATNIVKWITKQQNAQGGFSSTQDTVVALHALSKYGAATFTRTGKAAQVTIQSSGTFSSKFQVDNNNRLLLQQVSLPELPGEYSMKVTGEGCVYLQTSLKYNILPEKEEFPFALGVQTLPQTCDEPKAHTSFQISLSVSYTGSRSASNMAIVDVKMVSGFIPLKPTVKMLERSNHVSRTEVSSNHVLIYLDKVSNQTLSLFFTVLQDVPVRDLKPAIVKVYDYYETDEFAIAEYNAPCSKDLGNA
Test: α2-macroglobulin trapping, protein gel

B1: HipHum 35 construct no.2 (recombinant HH35 protein, catalytic domain only, with a six histidine tag at the amino terminal) (enzyme)
chain: HHHHHHRRSPRAPLSLSRRGWQPRGYPDGGAAQAFSKRTLSWRLLGEALSSQLSVADQRRIVALAFRMWSEVTPLDFREDLAAPGAAVDIKLGFGRGRHLGCPRAFDGSGQEFAHAWRLGDIHFDDDEHFTPPTSDTGISLLKVAVHEIGHVLGLPHTYRTGSIMQPNYIPQEPAFELDWSDRKAIQKLY
binding: binds
